# Laboratory results: PubChem BioAssay AID686943 (Drosophila RNAi Screening Center, 2013)
# Purpose: 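Knockdowns that increase or decrease active ERK after insulin receptor stimulation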 (primary screen)
# Cells: Drosophila S2R+ haemocyte-like cells expressing YFP-tagged ERK (Rolled)
# Reagents: long dsRNA against Drosophila genes
# Treatment: insulin stimulation versus unstimulated cells; dose and duration not given
# Measurement: 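Antibody staining for doubly phosphorylated ERK divided by ERK-YFP signal, as plate z-scores, in insulin-treated and untreated cells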
# Reading the numbers: replicate 1, z-score of dpERK with insulin and replicate 2, z-score of dpERK with insulin: higher = more active ERK per ERK-YFP after insulin; replicate 1, z-score of dpERK under basal conditions: higher = more basal active ERK per ERK-YFP
# In all, the deposit lists about 23,000 reagents; this is an unselected part of those with a known target gene and a result. 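Extra replicates exist only for a retested subset of genes; insulin dose and duration not given; both raised and lowered dpERK matter.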 Further read-outs or replicates are left out here. No sequences are given here. Not given: the amount of reagent, the time to read-out.
target gene,DRSC id,"replicate 1, z-score of dpERK with insulin","replicate 2, z-score of dpERK with insulin","replicate 1, z-score of dpERK under basal conditions"
PPO2,DRSC07102,0.35,0.07,-0.31
CG5267,DRSC06928,-0.61,0.2,0.05
ng2,DRSC18803,0.02,0.94,0.31
CG7568,DRSC16259,0.66,0.05,-0.56
CG14693,DRSC14916,0.8,0.82,0.23
Dip-C,DRSC15855,0.18,0.47,-0.73
CG11286,DRSC14293,0.02,0.23,0.36
alpha-Man-Ia,DRSC17642,-1.67,0.78,-0.48
alpha-Man-Ia,DRSC18162,-0.27,-0.17,-0.95
alpha-Man-Ia,DRSC18163,0.19,0.41,-0.16
alpha-Man-Ia,DRSC18735,0.81,0.11,-1.02
CG7739,DRSC10910,-0.4,-0.47,0.06
Nek2,DRSC18124,1.18,0.62,1.92
Acbp6,DRSC10217,0.27,0.32,-1.2
fidipidine,DRSC07618,-1.97,-1.89,0.39
CG3662,DRSC00626,0.48,0.2,0.76
DppIII,DRSC16241,0.82,0.53,0.7
CG9338,DRSC03213,0.44,0.07,-0.88
Spred,DRSC05976,1.25,1.32,2.12
CG30184,DRSC22277,-0.02,-0.18,0.36
BEAF-32,DRSC05927,0.57,0.13,0.04
CG14968,DRSC08427,0.66,1.32,0.54
Ssl2,DRSC14395,0.62,0.11,-0.81
Ssl2,DRSC22796,0.57,0.34,0.93
